Assay results from PubChem BioAssay AID540276 (National Center for Advancing Translational Sciences (NCATS), 2011).
The whole screen tested about 300,000 compounds, of which about 5,400 (1.8%) were called active. Inconclusive means that the source gave no clear call. Such entries were picked first, then a sample of the others. The call rests on the fitted dose curve; tested in HEK293 cells. Potencies of inconclusive entries are doubtful fits and often do not repeat.

Test: qHTS for inhibitors of binding or entry into cells for Marburg Virus
Settings: Marburg virus pseudotyped entry inhibition, cell reporter; series mostly up to 37.8 µM
Potency means the concentration at half of the fitted maximal effect.

SMILES	Potency
CCOC(=O)c1cnc2nc(C(F)(F)F)[nH]n2c1=O	inconclusive: 3.66 µM [inhibitor, single point]
NC(=O)CC1C(=O)N(c2ccc(Cl)cc2)C(=S)N1NC(=O)c1cccc(F)c1 (configuration not stated)	inconclusive: 3.16 µM [activator, full curve]
Cc1cccc(C)c1OC(=O)C(c1ccccc1)c1ccccc1	inconclusive: 23.1 µM [inhibitor, single point]
O=C(COC(=O)c1ccc(Cl)nc1)NNC(=O)c1ccc(Cl)cc1	inactive
COc1ccccc1CCNC(=O)CCc1c(C)c2cc3c(C)coc3cc2oc1=O	inactive
CC(C)(C)c1ccc(Oc2ccc(NC(=O)c3cccs3)cn2)cc1	active: 12.6 µM
O=C(Cn1cc2c(n1)CCCCC2)Nc1ccccc1Cl	inactive
O=C(CSc1nnnn1-c1ccccc1)N1CCCc2ccccc21	inactive
CCCCCCC(=O)N/N=C/c1c(O)n(CCc2ccccc2)c(=O)[nH]c1=O	inconclusive: 35.5 µM [inhibitor, single point]
Cc1cc(-c2ccccc2)nc(N/N=C/c2ccccc2F)n1	inconclusive: 6.31 µM [activator, partial curve, poor fit]
COc1ccc(CNC(=O)c2cc3c(=O)n4ccccc4nc3n(Cc3ccco3)c2=N)cc1	inactive
Clc1ccc(OCCn2ccnc2)c(Cl)c1	inactive
Cc1ccc(NC(=O)c2ccc(OCC3CCCO3)cc2)nc1 (configuration not stated)	inconclusive: 35.5 µM [inhibitor, single point]
C(=N\NC1=Nc2cccc3cccc1c23)/c1cccnc1	inconclusive: 35.5 µM [inhibitor, single point]
Cc1ccc(NC(=O)CC2SC(=NC3CCCCC3)NC2=O)cc1 (configuration not stated)	inactive
O=C(CCNC(=O)c1ccccc1)Nc1ccc(Cl)c(S(=O)(=O)N2CCCCC2)c1	inconclusive: 35.5 µM [inhibitor, single point]
CCOC(=O)c1c(CN(CC)CC)oc2ccc(OC)cc12	inactive
Cc1ccc2[nH]c3c(N4CCc5ccccc5C4)ncnc3c2c1	active: 6.31 µM
CCCn1c2ccccc2c2nnc(SC(CC)C(=O)Nc3sc4c(c3C#N)CCCC4)nc21 (configuration not stated)	inconclusive: 5.8 µM [inhibitor, full curve]
CC(Sc1nnc(Nc2ccccc2)s1)C(=O)Nc1nc(-c2ccccc2)cs1 (configuration not stated)	inconclusive: 1.58 µM [inhibitor, full curve, poor fit]
O=C(N/N=C/c1cc2c(c([N+](=O)[O-])c1)OCO2)c1ccncc1	inactive
CCOC(=O)N1CCN(S(=O)(=O)c2ccc3c(c2)SCC(=O)N3)CC1	inconclusive: 0.112 µM [inhibitor, full curve, poor fit]

Some of these compounds in order of length of the SMILES, largest number first.
SMILES	Potency
COc1ccc(CNC(=O)c2cc3c(=O)n4ccccc4nc3n(Cc3ccco3)c2=N)cc1	inactive
NC(=O)CC1C(=O)N(c2ccc(Cl)cc2)C(=S)N1NC(=O)c1cccc(F)c1 (configuration not stated)	inconclusive: 3.16 µM [activator, full curve]
CCOC(=O)N1CCN(S(=O)(=O)c2ccc3c(c2)SCC(=O)N3)CC1	inconclusive: 0.112 µM [inhibitor, full curve, poor fit]
CC(C)(C)c1ccc(Oc2ccc(NC(=O)c3cccs3)cn2)cc1	active: 12.6 µM
O=C(CSc1nnnn1-c1ccccc1)N1CCCc2ccccc21	inactive
C(=N\NC1=Nc2cccc3cccc1c23)/c1cccnc1	inconclusive: 35.5 µM [inhibitor, single point]
